According to the supplement of paper PMC4604168 (melanoma cell lines):
This is one part of the list. Single values are uncertain, as repeats are few or missing.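 The apoptosis fraction was the count of cleaved-PARP antibody-stained nuclei relative to all DNA-stained nuclei, imaged in 1,536-well plates. Screening doses were set so most cells survived, and baseline and induced cleaved-PARP levels vary greatly across cell lines.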

The molecules below were run on A375 (assay: cleaved PARP positive nuclei fraction relative to DMSO control; melanoma cells; higher = more apoptosis). Conditions: library dose: low library concentration; 72 h.

In order of falling “cleaved PARP positive nuclei fraction” value:
1. Cn1c(Nc2ccc(C(F)(F)F)cc2)nc2cc(Oc3ccnc(-c4ncc(C(F)(F)F)[nH]4)c3)ccc21 + CCCCCCCCCCCC1=C(O)C(=O)C=C(O)C1=O [Embelin] (first compound 0.08 µM, partner dose 1.2 µM)  529%
2. Nc1cccc2c1CN(C1CCC(=O)NC1=O)C2=O (stereo not drawn) [lenalidomide] + Cn1cc(/C=C2\C(=O)Nc3cccnc32)c2ccccc21 [GW441756] (first compound 1 µM, partner dose 0.4 µM)  302%
3. Cn1nnc2c(C(N)=O)ncn2c1=O [temozolomide] + COc1ccc2c(c1)CCC1C2CCC2(C)C(NCCCCCCN3C(=O)C=CC3=O)CCC12 [U73122] (first compound 2 µM, partner dose 0.4 µM)  286%
4. Cc1nc(Nc2ncc(C(=O)Nc3c(C)cccc3Cl)s2)cc(N2CCN(CCO)CC2)n1 [dasatanib] + c1cc(-c2cnn3cc(-c4ccc(OCCN5CCCCC5)cc4)cnc23)ccn1 [Dorsomorphin] (first compound 0.004 µM, partner dose 0.4 µM)  279%
5. CC(C)(C)c1cnc(CSc2cnc(NC(=O)C3CCNCC3)s2)o1 + Oc1cc(-c2nc(-c3ccccc3)[nH]c2-c2ccncc2)ccc1Cl [L779450] (first compound 0.01 µM, partner dose 0.2 µM)  252%
6. Cn1cncc1[C@@](N)(c1ccc(Cl)cc1)c1ccc2c(c1)c(-c1cccc(Cl)c1)cc(=O)n2C [tipifarnib] + Oc1nc(-c2ccc(C(F)(F)F)cc2)nc2c1CSCC2 [XAV939] (first compound 0.01 µM, partner dose 2 µM)  237%
7. Cn1c(Nc2ccc(C(F)(F)F)cc2)nc2cc(Oc3ccnc(-c4ncc(C(F)(F)F)[nH]4)c3)ccc21 + O=C(Nc1ccccc1)c1cc([N+](=O)[O-])ccc1Cl [GW9662] (first compound 0.08 µM, partner dose 2 µM)  214%
8. Cn1cncc1[C@@](N)(c1ccc(Cl)cc1)c1ccc2c(c1)c(-c1cccc(Cl)c1)cc(=O)n2C [tipifarnib] + O=C(O)C(=O)Nc1sc2c(c1C(=O)O)CCNC2 [TCS401] (first compound 0.01 µM, partner dose 1.66667 µM)  173%
9. Cn1cncc1[C@@](N)(c1ccc(Cl)cc1)c1ccc2c(c1)c(-c1cccc(Cl)c1)cc(=O)n2C [tipifarnib] + COc1cc2ncnc(Nc3ccc(Oc4ccccc4)cc3)c2cc1OC [SrcI1] (first compound 0.01 µM, partner dose 2 µM)  156%
10. C#Cc1cccc(Nc2ncnc3cc(OCCOC)c(OCCOC)cc23)c1 [erlotinib] + COc1cc2ncnc(Nc3ccc(Oc4ccccc4)cc3)c2cc1OC [SrcI1] (first compound 0.8 µM, partner dose 2 µM)  152%
11. C#Cc1cccc(Nc2ncnc3cc(OCCOC)c(OCCOC)cc23)c1 [erlotinib] + O=C(O)C(=O)Nc1sc2c(c1C(=O)O)CCNC2 [TCS401] (first compound 0.8 µM, partner dose 1.66667 µM)  133%
12. Cc1nc(Nc2ncc(C(=O)Nc3c(C)cccc3Cl)s2)cc(N2CCN(CCO)CC2)n1 [dasatanib] + COC(=O)c1sccc1S(=O)(=O)Nc1ccc(Nc2ccccc2)cc1OC [GSK0660] (first compound 0.004 µM, partner dose 1 µM)  34.7%

The molecules below were run on C32 in the same assay as above. Conditions: library dose: low library concentration; 72 h.

In order of rising “cleaved PARP positive nuclei fraction” value:
1. Cc1cc(N2CCOCC2)cc2[nH]c(-c3c(NC[C@@H](O)c4cccc(Cl)c4)cc[nH]c3=O)nc12 + O=C(O)C(=O)Nc1sc2c(c1C(=O)O)CCNC2 [TCS401] (first compound 0.2 µM, partner dose 1.66667 µM)  43.1%
2. C=CCn1c(=O)c2cnc(Nc3ccc(N4CCN(C)CC4)cc3)nc2n1-c1cccc(C(C)(C)O)n1 + COc1cc2ncnc(Nc3ccc(Oc4ccccc4)cc3)c2cc1OC [SrcI1] (first compound 0.02 µM, partner dose 2 µM)  51%
3. C#Cc1cccc(Nc2ncnc3cc(OCCOC)c(OCCOC)cc23)c1 [erlotinib] + Oc1cc(-c2nc(-c3ccccc3)[nH]c2-c2ccncc2)ccc1Cl [L779450] (first compound 0.8 µM, partner dose 0.2 µM)  52.2%
4. C=CCn1c(=O)c2cnc(Nc3ccc(N4CCN(C)CC4)cc3)nc2n1-c1cccc(C(C)(C)O)n1 + O=c1cc(-c2cccc3c2Sc2ccccc2S3)oc(N2CCOCC2)c1 [KU55933] (first compound 0.02 µM, partner dose 1 µM)  65.3%
5. Cc1ccc(NC(=O)c2cccc(N(C)C)c2)cc1NC(=O)c1ccc(O)cc1 + N#Cc1c(O)c2c(-c3ccc(-c4ccccc4O)cc3)csc2[nH]c1=O [A769662] (first compound 2 µM, partner dose 2 µM)  72.2%
6. C[C@@H]1CCN(C(=O)CC#N)C[C@@H]1N(C)c1ncnc2[nH]ccc12 + O=C(Nc1ccccc1)c1cc([N+](=O)[O-])ccc1Cl [GW9662] (first compound 1 µM, partner dose 2 µM)  78.4%
7. C#Cc1cccc(Nc2ncnc3cc(OCCOC)c(OCCOC)cc23)c1 [erlotinib] + O=c1cc(-c2cccc3c2Sc2ccccc2S3)oc(N2CCOCC2)c1 [KU55933] (first compound 0.8 µM, partner dose 1 µM)  80.8%
8. Cn1c(Nc2ccc(C(F)(F)F)cc2)nc2cc(Oc3ccnc(-c4ncc(C(F)(F)F)[nH]4)c3)ccc21 + N#Cc1c(O)c2c(-c3ccc(-c4ccccc4O)cc3)csc2[nH]c1=O [A769662] (first compound 0.08 µM, partner dose 2 µM)  85.5%
9. Cn1c(Nc2ccc(C(F)(F)F)cc2)nc2cc(Oc3ccnc(-c4ncc(C(F)(F)F)[nH]4)c3)ccc21 + O=C1NC(=O)/C(=C/c2ccc(-c3ccc(F)cc3O)o2)S1 [AS252424] (first compound 0.08 µM, partner dose 1 µM)  89.2%
10. Cn1nnc2c(C(N)=O)ncn2c1=O [temozolomide] + COc1cc(N2CCC(N3CCN(C)CC3)CC2)ccc1Nc1ncc(Cl)c(Nc2ccccc2S(=O)(=O)C(C)C)n1 [NVP-TAE684] (first compound 2 µM, partner dose 0.08 µM)  92%
11. COCC[n+]1c2c(n(Cc3cnccn3)c1C)C(=O)c1ccccc1C2=O + COc1ccc(-c2ccc3c(N4CCOCC4)nc(N4C[C@@H](C)O[C@@H](C)C4)nc3n2)cc1CO [KU0063794] (first compound 0.0004 µM, partner dose 0.02 µM)  97.4%
12. CC1(C)NC(=O)N(c2ccc([N+](=O)[O-])c(C(F)(F)F)c2)C1=O [nilutamide] + COC(=O)c1sccc1S(=O)(=O)Nc1ccc(Nc2ccccc2)cc1OC [GSK0660] (first compound 1 µM, partner dose 1 µM)  98.6%
13. Cc1cc(N2CCOCC2)cc2[nH]c(-c3c(NC[C@@H](O)c4cccc(Cl)c4)cc[nH]c3=O)nc12 + O=c1cc(-c2cccc3c2Sc2ccccc2S3)oc(N2CCOCC2)c1 [KU55933] (first compound 0.2 µM, partner dose 1 µM)  102%
14. C#Cc1cccc(Nc2ncnc3cc(OCCOC)c(OCCOC)cc23)c1 [erlotinib] + N#Cc1c(O)c2c(-c3ccc(-c4ccccc4O)cc3)csc2[nH]c1=O [A769662] (first compound 0.8 µM, partner dose 2 µM)  107%
15. C=CCn1c(=O)c2cnc(Nc3ccc(N4CCN(C)CC4)cc3)nc2n1-c1cccc(C(C)(C)O)n1 + CCN(CC)CCCCNc1ncc2cc(-c3cc(OC)cc(OC)c3)c(NC(=O)NC(C)(C)C)nc2n1 [PD173074] (first compound 0.02 µM, partner dose 0.1 µM)  118%
16. COc1cc(Nc2ncc(F)c(Nc3ccc4c(n3)NC(=O)C(C)(C)O4)n2)cc(OC)c1OC [Tamatinib] + O=C1NC(=O)/C(=C/c2ccc(-c3ccc(F)cc3O)o2)S1 [AS252424] (first compound 0.4 µM, partner dose 1 µM)  124%
17. O=C(CCCCCCC(=O)Nc1ccccc1)NO [vorinostat] + COc1ccc(COc2ccc(Cc3cnc(N)nc3N)cc2OC)cc1 [GW2580] (first compound 0.08 µM, partner dose 1 µM)  125%
18. CO[C@@H]1[C@H](N(C)C(=O)c2ccccc2)C[C@H]2O[C@]1(C)n1c3ccccc3c3c4c(c5c6ccccc6n2c5c31)C(=O)NC4 [Midostaurin] + O=C(Nc1ccccc1)c1cc([N+](=O)[O-])ccc1Cl [GW9662] (first compound 0.08 µM, partner dose 2 µM)  139%
19. NC(=O)Nc1cc(-c2cccc(F)c2)sc1C(=O)N[C@H]1CCCNC1 + CCCCCCCCCCCC1=C(O)C(=O)C=C(O)C1=O [Embelin] (first compound 0.02 µM, partner dose 1.2 µM)  167%
20. OCCn1cc(-c2cnc3nnn(Cc4ccc5ncccc5c4)c3n2)cn1 + Oc1cc(-c2nc(-c3ccccc3)[nH]c2-c2ccncc2)ccc1Cl [L779450] (first compound 1 µM, partner dose 0.2 µM)  249%
21. Cc1nc(Nc2ncc(C(=O)Nc3c(C)cccc3Cl)s2)cc(N2CCN(CCO)CC2)n1 [dasatanib] + Cc1cc([N+](=O)[O-])ccc1NS(=O)(=O)c1cc(Cl)ccc1Cl [FH535] (first compound 0.004 µM, partner dose 1 µM)  250%
